The source of these data is patent US9128372B2, “Dendritic compounds, photoresist compositions and methods of making electronic devices” (Rohm and Haas Electronic Materials LLC, priority 2012, dated 2015).

A short description of the data set: Acid diffusion length evaluation (acid source layer / acid detector layer bilayer, 193 nm open frame exposure, film thickness loss). The conditions noted are these: 193 nm exposure, calculated from film thickness loss by equations 1 and 2. It counts as physicochemical.
For `O=C(OCCC(F)(F)C(F)(F)S(=O)(=O)O)C12CC3CC(CC(C3)C1)C2` [Comp. PAG1, reference compound], the “PAG acid diffusion length (nm) (PEB = 120° C./60 sec)” value (from here on “PAG acid diffusion length (nm)”) is listed as 55.9 nm.

Regarding `O=C(OCC(F)(F)S(=O)(=O)O)C12CC3CC(CC(C3)C1)C2` [Comp. PAG2, reference compound], the “PAG acid diffusion length (nm)” value is on record as 47.7 nm.

“TPS DiAdOH-DFES [Ex. 2 (TPS-DiAdOH-DFES)]”: the “PAG acid diffusion length (nm)” value is 6.0 nm.
